In PubChem BioAssay AID587 (National Center for Advancing Translational Sciences (NCATS), 2007):
Values joined by “and” are separate entries in the source; they are usually repeats but may differ in a detail not shown here. Equal entries are not always repeated. The campaign covered roughly 59,000 compounds. About 35 (0.06%) were called active. The shares of active, inactive and inconclusive entries below differ from those in the screen. No stated cut-off is given here; in the data, active means max dye-equivalent concentration above about 10 nM; inconclusive means between about 1.1 nM and that limit; inactive means weaker than that. Where a SMILES comes first, the peptide text is derived from it. [ ]: non-standard residue; d: D form.

Test: qHTS Assay for Spectroscopic Profiling in Texas Red Spectral Region
Conditions: Compound fluorescence, Texas Red channel, 547/618 nm; active compounds read high
Outline: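 Compound titrations in 100 mM Tris pH 8.0 were incubated 15 min at room temperature and read at 547 nm excitation / 618 nm emission. Texas Red six-point standard curve on each plate converted fluorescence to dye-equivalent concentration.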

SMILES	max dye-equivalent concentration
CCOC(=O)c1sc(N)c(C#N)c1COC(=O)CNC(=O)c1ccccc1	inactive
O=S(=O)(c1ccccc1)c1nc(-c2ccco2)oc1N1CCCCCC1	inconclusive: 1.6e-09 M
CCCCCn1c(=NC(C)=O)c(C#N)cc2c(=O)n3ccccc3nc21	inconclusive: 1.2e-09 M
CCCn1c(NCc2ccco2)nc2ccccc21	inconclusive: 1.3e-09 M
c1ccc(-n2c(-c3ccco3)nnc2N2CCOCC2)cc1	inconclusive: 1.5e-09 M
CC(C)(C)c1cc(NC(=O)COC(=O)C2CC2)n(-c2ccccc2)n1	inconclusive: 1.3e-09 M
O=C(Nc1cccnc1)C1CCCN1S(=O)(=O)c1ccc(Cl)c(Cl)c1 (configuration not stated)	inconclusive: 1.5e-09 M
O=S(=O)(c1cccc(-c2nnc(SCc3nc4ccccc4s3)o2)c1)N1CCOCC1	inconclusive: 5.1e-09 M
O=C(Nc1nnc(C2CCCC2)s1)C1CCN(S(=O)(=O)c2ccc(Cl)cc2)CC1	inconclusive: 1.1e-09 M
O=C(O)CCCC(=O)Nc1ccc(C(=O)NCc2cccnc2)cc1	inconclusive: 1.4e-09 M
CCOC(=O)N1CCC(Nc2c(NCCCOC)c(=O)c2=O)CC1	inconclusive: 1.3e-09 M
CSc1ncccc1C(=O)OCC(=O)NC(=O)NCCC(C)C	inconclusive: 1.7e-09 M
CCOC(=O)C1CCCN(CC(O)COc2ccc(OC)cc2C(C)(C)C)C1 (configuration not stated)	inconclusive: 1.2e-09 M
Cc1ccc(S(=O)(=O)N(CC(=O)O)Cc2ccccc2F)cc1	inconclusive: 1.7e-09 M
CCOC(=O)CSc1nnc([C@@H](NC(=O)OC(C)(C)C)C(C)C)o1	inconclusive: 1.9e-09 M
CCC(C(=O)NC1CCCCC1)N(CC1CCCO1)C(=O)CNS(=O)(=O)c1ccc(OC)cc1 (configuration not stated)	inconclusive: 1.1e-09 M
COC(=O)c1[nH]c2ccc(Cl)cc2c1NC(=O)CCN1CCOCC1	inconclusive: 1.4e-09 M
COC(=O)c1ccc(CNC(=O)CNc2cc(C(F)(F)F)ccc2N2CCOCC2)cc1	inconclusive: 1.5e-09 M
CCCCOC(=O)C(C#N)c1nc2ccccc2nc1N1CCOCC1 (configuration not stated)	inactive
CCC(C(=O)NC1CCCC1)N(C(=O)Cn1nnc(-c2ccc(C)o2)n1)C(C)(C)C (configuration not stated)	inconclusive: 1.9e-09 M
CCCCNc1c(CN)cnc2cc(Cl)ccc12	inactive
CCOC(=O)N1CCN(C(=O)Cc2ccsc2)CC1	inconclusive: 1.4e-09 M

SMILES	max dye-equivalent concentration
CC(C)(C)c1ccccc1NC(=O)c1cccnc1	inconclusive: 1.2e-09 M
Cn1c(SCCOc2cccc(Cl)c2)nnc1-c1ccncc1	inconclusive: 2.1e-09 M
CC(=O)Oc1ccc2c(c1)c(C(C)=O)c(C)n2C	inconclusive: 1.8e-09 M
COc1c2ccoc2nc2c(OC)c(OC[C@H](O)C(C)(C)O)ccc12	inconclusive: 1.1e-09 M
CCCN1CCN(CCCNC(=O)Cn2nc(-c3ccc(Cl)cc3)ccc2=O)CC1	inconclusive: 1.4e-09 M
CN(C)S(=O)(=O)c1ccc(C(=O)OCc2ccc(C#N)cc2)cc1	inconclusive: 2.1e-09 M
CCCC(=O)OCC(=O)Nc1cc(C(C)(C)C)nn1-c1ccccc1	inconclusive: 2e-09 M
COc1ccc(Br)cc1S(=O)(=O)N1CC(C)OC(C)C1 (configuration not stated)	inconclusive: 1.1e-09 M
CCN(CC)C(=O)CN1CCN(c2ccccc2F)CC1	inconclusive: 1.6e-09 M
CCCOCC(O)COc1ccccc1C(=O)N1CCOCC1 (configuration not stated)	inconclusive: 1.2e-09 M
Cc1ccc(-c2nnn(CC(=O)N(CC(=O)NCc3ccccc3)c3cccc(C)c3C)n2)o1	inconclusive: 1.3e-09 M
CCOC(=O)N1CCN(S(=O)(=O)c2ccc(OCC)c(C)c2)CC1	inconclusive: 1.7e-09 M
CCCCCCCCCCCCCCC/C=C\[C@H](O)[C@@H](NC(=O)CCCCCCCCCCCCC)OC (tested in a mixture with another compound)	inconclusive: 1.1e-09 M
CC1CC(c2ccccc2)n2nc(NC(=O)c3ccco3)nc2N1 (configuration not stated)	inconclusive: 1.8e-09 M
CCC1(C)Cc2c(sc3nc4n(c(=O)c23)CCCS4)CO1 (configuration not stated)	inconclusive: 1.1e-09 M
CCCc1cc(=O)[nH]c(SCC(=O)Nc2nonc2N)n1	inconclusive: 1.7e-09 M
CC(=O)N1CCN(c2ccc(NCc3ccc(C)cc3)cc2)CC1	inconclusive: 1.1e-09 M
COc1cc(CNc2ncn[nH]2)cc(Br)c1OC	inconclusive: 1.2e-09 M
Cc1nc2ccccc2n1CC(=O)NCCN1CCCC1	inconclusive: 1.2e-09 M
NC(=O)C1CCCNC1 (configuration not stated)	inconclusive: 1.4e-09 M
CC1CCN(C(=O)CCCOc2cc(=O)n(C)c3ccccc23)CC1	inconclusive: 1.1e-09 M
COc1cc(OC)cc(C(=O)N2CCC(n3c(C)nc4cc(F)ccc43)CC2)c1	inconclusive: 1.5e-09 M

SMILES	max dye-equivalent concentration
O=S(=O)(CCSc1nc2ccccc2o1)Cc1ccccc1	inconclusive: 1.2e-09 M
Cn1cnc([N+](=O)[O-])c1Sc1ncnc2nc[nH]c12	inconclusive: 1.1e-09 M and inconclusive: 1.3e-09 M
N[C@H](CO)C(=O)NCC(=O)O (H-[dS]-Gly-OH)	inconclusive: 1.1e-09 M
CC(C)COC(=O)C1C(=O)CC(C)(O)C(C(=O)OCC(C)C)C1c1cccnc1 (configuration not stated)	inconclusive: 1.8e-09 M
O=c1[nH]c(N2CCOCC2)nc2c1CCCC2	inconclusive: 2.9e-09 M
CCc1nc(SCC(=O)Nc2ccnc3ccccc23)n[nH]1	inconclusive: 1.1e-09 M
CC1Cc2ccccc2N1C(=O)CN1CCc2ccccc2C1 (configuration not stated)	inconclusive: 2.3e-09 M
CCc1nnc(NC(=O)CN2CCC(O)(c3ccccc3OC)CC2)s1	inconclusive: 1.5e-09 M
Cc1cc(S(=O)(=O)N2CCOCC2)ccc1F	inconclusive: 1.5e-09 M
Cc1ccc2c(c1)nnn2C1CCN(S(=O)(=O)c2ccc(C(=O)N3C(C)CCCC3C)cc2)CC1 (configuration not stated)	inconclusive: 1.5e-09 M
N#CC1=C(N)C(C#N)(C#N)[C@H](c2ccncc2)[C@H]2CC3(CC=C12)OCCO3	inconclusive: 1.3e-09 M
CCOC(=O)c1c2c(n3ccccc13)C(=O)c1ccccc1C2=O	inactive
NC(=O)CSc1nnc(C2CC2)n1Cc1ccccc1	inconclusive: 1.3e-09 M
O=C1CCCc2nc(N3CCc4ccccc43)ncc21	inconclusive: 1.3e-09 M
COc1ccc(CCNC(=O)C2CC(=O)N(C3CCCC3)C2)cc1OC (configuration not stated)	inconclusive: 1.4e-09 M
CN1CCN(Cc2nc3c([nH]2)c(=O)[nH]c(=O)n3C)CC1	inconclusive: 1.7e-09 M
CCCCNc1cc(C)nc(NCc2ccccc2)n1	inconclusive: 1.3e-09 M
Cc1ccc(S(=O)(=O)N2CCSC2c2ccco2)cc1 (configuration not stated)	inconclusive: 1.3e-09 M
CCOCC(=O)Nc1ccc(S(=O)(=O)N2CCOCC2)cc1	inconclusive: 1.2e-09 M
Cc1cc(C)cc(N2C(=O)C3C4C=CC(C4)C3C2=O)c1 (configuration not stated)	inconclusive: 1.2e-09 M
COC(=O)C1=C(C)NC(C)=C(C(=O)OC(C)C)[C@H]1c1cccc2nonc12	inactive
COc1ccc(C2c3c(oc4ccccc4c3=O)C(=O)N2CC2CCCO2)cc1 (configuration not stated)	inconclusive: 1.3e-09 M

Rewritten in markdown: 7 of the compounds above

| SMILES | max dye-equivalent concentration |
| --- | --- |
| CC1Cc2ccccc2N1C(=O)CN1CCc2ccccc2C1 (configuration not stated) | inconclusive: 2.3e-09 M |
| CCc1nnc(NC(=O)CN2CCC(O)(c3ccccc3OC)CC2)s1 | inconclusive: 1.5e-09 M |
| Cc1cc(S(=O)(=O)N2CCOCC2)ccc1F | inconclusive: 1.5e-09 M |
| Cc1ccc2c(c1)nnn2C1CCN(S(=O)(=O)c2ccc(C(=O)N3C(C)CCCC3C)cc2)CC1 (configuration not stated) | inconclusive: 1.5e-09 M |
| N#CC1=C(N)C(C#N)(C#N)[C@H](c2ccncc2)[C@H]2CC3(CC=C12)OCCO3 | inconclusive: 1.3e-09 M |
| CCOC(=O)c1c2c(n3ccccc13)C(=O)c1ccccc1C2=O | inactive |
| NC(=O)CSc1nnc(C2CC2)n1Cc1ccccc1 | inconclusive: 1.3e-09 M |

The results go on:

SMILES	max dye-equivalent concentration
CC1=CCC2C(=O)N(c3nc4ccccc4n3C)C(=O)C2C1 (configuration not stated)	inconclusive: 1.1e-09 M
CC1=CC(=O)C2=C(C)CC[C@@H]3[C@@H](OC(=O)[C@H]3C)[C@H]12	inactive
COc1cccc(N2CCN(Cc3nc(N)nc(Nc4ccccc4OC)n3)CC2)c1	inconclusive: 1.4e-09 M
COCCn1nnnc1C(C(C)C)N1CCC(Cc2ccccc2)CC1 (configuration not stated)	inconclusive: 2.4e-09 M
Cc1cc(C(=O)CSc2nnnn2C)c(C)n1-c1cccc(F)c1	inconclusive: 1.3e-09 M
O=C(NCc1ccco1)c1cccc(F)c1	inconclusive: 1.6e-09 M
CCCCNC(=O)Nc1cc(C(F)(F)F)c[nH]c1=O	inconclusive: 1.8e-09 M
Cc1ccc(OCc2nnc(SCC(=O)Nc3ccc4c(c3)OCCO4)n2Cc2ccco2)cc1	inconclusive: 1.2e-09 M
COc1ccc(OC)c(S(=O)(=O)N2Cc3ccccc3CC2C(=O)O)c1 (configuration not stated)	inconclusive: 1.9e-09 M
O=c1c2ccccc2nc2n1CCCCN2	inconclusive: 1.2e-09 M
CC(C)(C)NC(=O)CSc1nncn1-c1ccccc1	inconclusive: 1.6e-09 M
Nc1nnc(CCC2CCCCC2)s1	inconclusive: 1.3e-09 M
COc1ccc(N=C2C(=O)Nc3ccccc32)cc1	inconclusive: 1.6e-09 M
COc1cc(CC(=O)Oc2ccc3c(c2)OCO3)cc(OC)c1OC	inconclusive: 1.5e-09 M
COc1cccc(-c2nccc(NCc3cnc(C)cn3)n2)c1	inconclusive: 1.1e-09 M
Cc1cc(NC(=O)CSc2nc(C3CC3)nc3sc4c(c23)CCC(C)C4)no1 (configuration not stated)	inconclusive: 1.6e-09 M
CCOC(=O)C1C(c2ccccc2Cl)NC(=O)N(C)C1(O)C(F)(F)F (configuration not stated)	inconclusive: 1.6e-09 M
O=C(Cc1ccc(Cl)c(Cl)c1)OCCN1CCCC1	inconclusive: 1.6e-09 M
O=C(CSc1nnc(-c2ccco2)n1-c1ccccc1)N1CCN(C(=O)c2ccco2)CC1	inconclusive: 1.1e-09 M
Cc1cc(C)c(C#N)c(SCS(=O)Cc2ccccc2)n1 (configuration not stated)	inconclusive: 2.4e-09 M
COc1ccc(NS(=O)(=O)c2ccc(NC(=O)C(C)(C(F)(F)F)C(F)(F)F)cc2)nn1	inactive
